In publication PMC7322566:
Results are given in words; binding and its absence hold for the method and conditions named. Binding seen in cells or lysates may run through a third protein. Some results given as binding are weak or reduced against the parent protein; the word gives no strength. Where a sequence is shown, tags or fusion partners need not be part of it.

Molecular target: T1, LIMP2 (human (endogenous in SH-SY5Y)) (UniProt Q14108)
T1 sequence: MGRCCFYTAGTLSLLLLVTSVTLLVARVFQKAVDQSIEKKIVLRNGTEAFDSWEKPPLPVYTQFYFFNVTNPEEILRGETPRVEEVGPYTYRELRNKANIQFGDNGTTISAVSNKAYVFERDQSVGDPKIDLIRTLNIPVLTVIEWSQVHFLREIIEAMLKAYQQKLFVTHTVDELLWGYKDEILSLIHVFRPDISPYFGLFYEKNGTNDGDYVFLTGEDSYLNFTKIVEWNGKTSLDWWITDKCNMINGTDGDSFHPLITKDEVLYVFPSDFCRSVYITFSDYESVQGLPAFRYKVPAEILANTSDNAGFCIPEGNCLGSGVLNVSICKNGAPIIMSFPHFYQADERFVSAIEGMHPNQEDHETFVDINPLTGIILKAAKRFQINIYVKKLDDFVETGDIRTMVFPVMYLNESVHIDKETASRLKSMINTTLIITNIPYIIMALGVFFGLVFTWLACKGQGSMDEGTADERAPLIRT
Assay: co-IP; LIMP2 immunoprecipitated with LIMP2 antibody from fresh lysates of SH-SY5Y cells, untreated or treated with 1 μM thapsigargin (Thg) for 1 h; input (2% of lysate) and immunoprecipitates blotted for GCase and LIMP2; GCase expressed as a ratio to LIMP2

binding: binds
B1: glucocerebrosidase (GCase) (enzyme, UniProt P04062 40-536)
chain: ARPCIPKSFGYSSVVCVCNATYCDSFDPPTFPALGTFSRYESTRSGRRMELSMGPIQANHTGTGLLLTLQPEQKFQKVKGFGGAMTDAAALNILALSPPAQNLLLKSYFSEEGIGYNIIRVPMASCDFSIRTYTYADTPDDFQLHNFSLPEEDTKLKIPLIHRALQLAQRPVSLLASPWTSPTWLKTNGAVNGKGSLKGQPGDIYHQTWARYFVKFLDAYAEHKLQFWAVTAENEPSAGLLSGYPFQCLGFTPEHQRDFIARDLGPTLANSTHHNVRLLMLDDQRLLLPHWAKVVLTDPEAAKYVHGIAVHWYLDFLAPAKATLGETHRLFPNTMLFASEACVGSKFWEQSVRLGSWDRGMQYSHSIITNLLYHVVGWTDWNLALNPEGGPNWVRNFVDSPIIVDITKDTFYKQPMFYHLGHFSKFIPEGSQRVGLVASQKNDLDAVALMHPDGSAVVVVLNRSSKDVPLTIKDPAVGFLETISPGYSIHTYLWRRQ
